PubChem BioAssay AID1259308 | NCATS – 2017

- Test: 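Genes whose loss raises luciferase production in HEK293 cells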 (primary screen)
- System: human HEK293 embryonic kidney cells stably expressing firefly luciferase (HEK-CMV-Luc2-Hygro)
- Knock-down reagent: single siRNA against human genes, 0.8 pmol siRNA per well
- Duration: 72 h
- Detection: 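Luciferase light (ONE-Glo) measured on one replicate plate set and viability (CellTiter-Glo) on the other, scaled to a negative control siRNA, with robust z-scores and luciferase per cell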
- Scale: total luciferase, z-score: higher = more reporter protein produced
- Call rule: 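Active when the median/MAD z-score for overall luciferase is greater than 3; a gene was taken forward for validation with new siRNAs if at least two of its three siRNAs passed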
- Meaning of the calls: active = raised luciferase; inactive = no rise
This is an unselected part of about 59,000 deposited reagents. Of all reagents, about 1,510 (2.6%) were called active. 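Calls use total luciferase alone and ignore viability, so some active siRNAs may act by altering cell number.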 Reagents against one gene are numbered here. Further read-outs or replicates are left out here.

Depletion of PROSER2 #1 came out at: total luciferase, z-score -1.29; inactive.
Depletion of PROSER2 #2 gave: total luciferase, z-score 1.19; inactive.
With knock-down of PROSER2 #3, the screen gave total luciferase, z-score 0.165; inactive.
Against OR2F1 #1, the values are total luciferase, z-score 0.388; inactive.
For OR2F1 #2, the values are total luciferase, z-score -2.87; inactive.
With knock-down of OR2F1 #3, the record shows total luciferase, z-score 0.322; inactive.
ICOSLG #1 gave total luciferase, z-score 1.11; inactive.
After knock-down of ICOSLG #2 the results were total luciferase, z-score -0.799; inactive.
ICOSLG #3 scored total luciferase, z-score -0.407; inactive.
Against TRIM26 #1, the values are total luciferase, z-score 0.371; inactive.
With knock-down of TRIM26 #2, the record shows total luciferase, z-score 1.56; inactive.
Silencing of TRIM26 #3 resulted in: total luciferase, z-score 1.46; inactive.
For RAB6C #1, the entry reads total luciferase, z-score -1.17; inactive.
Knock-down of RAB6C #2 resulted in: total luciferase, z-score -0.556; inactive.
For RAB6C #3 the deposit lists total luciferase, z-score -1.59; inactive.
With knock-down of SOX2 #1, the screen gave total luciferase, z-score 0.0511; inactive.
Depletion of SOX2 #2 resulted in: total luciferase, z-score 0.573; inactive.
For SOX2 #3, the entry reads total luciferase, z-score 1.44; inactive.
Knock-down of NIPSNAP3B #1 came out at: total luciferase, z-score 0.085; inactive.
With knock-down of NIPSNAP3B #2, the screen gave total luciferase, z-score 0.838; inactive.
Depletion of NIPSNAP3B #3 came out at: total luciferase, z-score 2.42; inactive.
After knock-down of KIF5B #1, the record shows total luciferase, z-score 0.087; inactive.
Against KIF5B #2 the deposit lists total luciferase, z-score 0.116; inactive.
For KIF5B #3, the values are total luciferase, z-score -0.344; inactive.
MEIS1-AS3 #1 showed total luciferase, z-score -0.91; inactive.
After knock-down of MEIS1-AS3 #2, the screen gave total luciferase, z-score 0.13; inactive.
After knock-down of MEIS1-AS3 #3, the screen gave total luciferase, z-score 0.318; inactive.
Against SEPTIN7 #1, the entry reads total luciferase, z-score -0.748; inactive.
For SEPTIN7 #2, the values are total luciferase, z-score -0.119; inactive.
SEPTIN7 #3 scored total luciferase, z-score -1.06; inactive.
Knock-down of PSIP1 #1 gave: total luciferase, z-score -0.0637; inactive.
After knock-down of PSIP1 #2, the record shows total luciferase, z-score 0.503; inactive.
Silencing of PSIP1 #3 gave: total luciferase, z-score 0.421; inactive.

Part of the list above, reformatted:
{"gene symbol":"SEPTIN7","reagent no.":2,"total luciferase, z-score":-0.119,"Outcome":"inactive"}
{"gene symbol":"SEPTIN7","reagent no.":3,"total luciferase, z-score":-1.06,"Outcome":"inactive"}
